Reference: publication doi:10.1101/2025.03.04.641150
No constants are given. Whether binding was seen depends on the method and setting. Some results given as binding are weak or reduced against the parent protein; the word gives no strength.

Chains of the proteins cited; added tags and fusions are not shown.
UniProt Q13148: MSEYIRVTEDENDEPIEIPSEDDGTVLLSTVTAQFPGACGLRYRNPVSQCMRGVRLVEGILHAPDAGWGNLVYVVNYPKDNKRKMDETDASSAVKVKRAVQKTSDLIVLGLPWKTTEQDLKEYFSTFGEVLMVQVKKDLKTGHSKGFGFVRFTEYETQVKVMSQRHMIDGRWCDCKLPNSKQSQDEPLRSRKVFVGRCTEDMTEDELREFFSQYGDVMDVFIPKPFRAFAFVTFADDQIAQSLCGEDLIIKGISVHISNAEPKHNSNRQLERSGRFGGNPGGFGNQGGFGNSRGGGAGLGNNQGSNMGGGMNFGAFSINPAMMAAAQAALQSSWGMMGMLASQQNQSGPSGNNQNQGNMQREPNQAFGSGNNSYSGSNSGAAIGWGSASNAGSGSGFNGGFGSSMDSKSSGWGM
UniProt P35637: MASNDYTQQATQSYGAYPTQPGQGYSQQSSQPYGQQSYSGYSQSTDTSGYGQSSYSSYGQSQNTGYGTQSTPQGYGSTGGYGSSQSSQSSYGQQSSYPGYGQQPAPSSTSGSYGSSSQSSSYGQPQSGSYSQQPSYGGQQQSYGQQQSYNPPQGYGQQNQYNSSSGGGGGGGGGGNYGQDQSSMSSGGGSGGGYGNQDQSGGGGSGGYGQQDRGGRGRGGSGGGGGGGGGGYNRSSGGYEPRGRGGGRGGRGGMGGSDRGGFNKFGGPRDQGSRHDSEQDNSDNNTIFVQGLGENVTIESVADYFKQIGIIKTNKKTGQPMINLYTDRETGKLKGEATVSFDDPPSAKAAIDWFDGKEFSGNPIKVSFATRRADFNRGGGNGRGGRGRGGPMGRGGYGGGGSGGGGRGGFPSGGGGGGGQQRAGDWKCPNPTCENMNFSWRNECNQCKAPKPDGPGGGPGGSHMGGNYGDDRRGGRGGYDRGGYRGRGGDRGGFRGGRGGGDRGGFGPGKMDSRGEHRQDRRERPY
UniProt P06748: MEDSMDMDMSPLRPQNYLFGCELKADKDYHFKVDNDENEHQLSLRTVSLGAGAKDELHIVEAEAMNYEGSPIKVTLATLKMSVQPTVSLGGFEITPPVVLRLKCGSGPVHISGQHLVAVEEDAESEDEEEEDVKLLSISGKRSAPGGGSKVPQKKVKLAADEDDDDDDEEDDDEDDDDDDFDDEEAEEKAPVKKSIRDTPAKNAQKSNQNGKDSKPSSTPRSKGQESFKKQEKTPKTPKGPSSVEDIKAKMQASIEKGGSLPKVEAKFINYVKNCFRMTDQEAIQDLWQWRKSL
UniProt P21926: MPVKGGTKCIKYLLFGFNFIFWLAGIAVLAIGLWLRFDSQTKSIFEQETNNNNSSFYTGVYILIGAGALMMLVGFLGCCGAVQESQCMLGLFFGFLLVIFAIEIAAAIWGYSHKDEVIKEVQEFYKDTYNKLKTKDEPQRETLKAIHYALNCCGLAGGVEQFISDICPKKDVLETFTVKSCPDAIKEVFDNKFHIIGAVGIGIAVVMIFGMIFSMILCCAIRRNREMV

molecular target: TAR DNA-binding protein 43 (TDP-43) (human (endogenous in post-mortem brain tissue)) (UniProt Q13148); test: single-molecule pulldown

| binding | Substance |
| --- | --- |
| binds | FUS (from UniProt P35637 1-526) |
| binds | nucleophosmin (NPM1) (from UniProt P06748 1-294) |
| binds | CD9 (from UniProt P21926 1-228) |
